Measurements taken from PubChem BioAssay AID1471 (National Center for Advancing Translational Sciences (NCATS), 2008).
About 310 (0.13%) of roughly 230,000 compounds were called active. Inconclusive means that the source gave no clear call. Such entries were picked first, then a sample of the others. The call rests on the fitted dose curve; in most records, active means well fitted activation curve with a large enough effect; inconclusive means small, poorly fitted or top-dose-only effect; inactive means no such curve, though single readings can be large or run the other way. Where the call is inconclusive, the potency comes from a doubtful curve fit.

Test: qHTS Multiplex Assay to Identify Dual Action Probes in a Cell Model of Huntington: Cytoprotection (ATP); further: nearly all actives have a fitted effect of over 45% in size;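 on cytoprotection (ATP increase): toxic huntingtin expression switched on by the ecdysone agonist tebufenozide; % of control where 0% means no effect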
Conditions: PC12 HTT-Q103 induced, ATP luminescence, 40 h; cytoprotection (ATP increase): at 56.4 µM (top of the series) unless noted
Summary of the method: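 PC12 cells with ecdysone-inducible HTT exon 1 Q103-GFP, induced with 100 nM tebufenozide and co-treated with library compounds in a dose series (1536-well, 1500 cells/well). Cytoprotection read as ATP content by ATPlite luminescence.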
Potency means the concentration at half of the fitted maximal effect.

SMILES	cytoprotection (ATP increase)	Potency
CN(Cc1cnn(C)c1)C(=O)c1sc2cccc(Cl)c2c1Cl	inactive: 7.21%	–
Cc1ccc(OCC(=O)Nc2cnn(CCCC(=O)O)c2)c([N+](=O)[O-])c1	inactive: -14%	–
CN=C(N)NCCC[C@H](N)C(=O)O	–	inconclusive: 0.891 µM [activator, partial curve]
CSc1nc2c(cc1C#N)CCC2	–	inconclusive: 3.98 µM [activator, single point]
CCC1CCC2(CC1)NNC(=S)NN2	–	inconclusive: 3.16 µM [activator, partial curve]
COc1ccc2nc(SCC(=O)Nc3ccc(S(=O)(=O)N4CCCC4)cc3)c(C#N)cc2c1	inactive: -6.68%	–
Cc1ccccc1CSc1nnc2ccc(-c3ccncc3)nn12	–	inconclusive: 1.26 µM [activator, single point]
CN1CCC2(CC1)CCN(C(=O)c1ccncc1)CC2	–	inconclusive: 0.355 µM [activator, partial curve, poor fit]
COc1ccc(NS(=O)(=O)c2cc(S(C)(=O)=O)ccc2C)cc1	inactive: -10.9% [at 10 µM]	–
O=C(C(=O)N1CCc2ccccc2C1)c1cn(CC(=O)N2CCCC2)c2ccccc12	–	inconclusive: 3.16 µM [activator, partial curve]
CCOC(=O)N1CCC(N(CCOC)C(=S)Nc2cccc(SC)c2)CC1	–	inconclusive: 31.6 µM [activator, single point]
CCn1c(SCC(O)c2ccccc2)nnc1-c1ccccc1 (stereo unspecified)	–	inconclusive: 0.891 µM [activator, single point]
Cn1c(NCCCO)nc2c1c(=O)n(Cc1ccccc1F)c(=O)n2C	–	inconclusive: 1.26 µM [activator, single point]
CSc1nc(=S)c2[nH]c(=S)[nH]c2[nH]1	inactive: 14.7% [at 10 µM]	–
O=C(C[n+]1ccccc1)c1ccc(-c2ccccc2)cc1	–	inconclusive: 1 µM [activator, single point]
C[N+]1(C)CCC(=C2c3ccccc3CC(=O)c3sccc32)CC1	–	inconclusive: 2.82 µM [activator, single point]
Cc1cccc(C)c1NC(=S)N(CCN1CCCCCC1)Cc1ccco1	–	inconclusive: 0.447 µM [activator, single point]
OCc1ccccc1	–	inconclusive: 5.62 µM [activator, single point]
COc1cc(C)nc(-n2nc(C)cc2OC)n1	–	inconclusive: 1 µM [activator, partial curve]
CS(=O)(=O)Nc1ccc([N+](=O)[O-])cc1Oc1ccccc1	–	inconclusive: 0.891 µM [activator, single point]
O=C(CNCC1CCCCC1)Nc1ccccc1N1CCCCC1	–	inconclusive: 5.62 µM [activator, single point]
O=C(Nc1cccc(C(F)(F)F)c1)C1CCCO1 (stereo unspecified)	inactive: 4.67% [at 10 µM]	–

Some values from the entries so far:
Entry for CN(Cc1cnn(C)c1)C(=O)c1sc2cccc(Cl)c2c1Cl under cytoprotection (ATP increase): inactive: 7.21%
Entry for O=C(C(=O)N1CCc2ccccc2C1)c1cn(CC(=O)N2CCCC2)c2ccccc12 under Potency: inconclusive: 3.16 µM [activator, partial curve]

More results follow:

SMILES	cytoprotection (ATP increase)	Potency
CCCn1c(=S)[nH]c2ccc(C(F)(F)F)cc21	–	inconclusive: 0.282 µM [activator, partial curve]
C[C@@H]1/C=C\CC(=O)OC[C@H](C)C(=O)N2CCC[C@@H]2C(=O)OC1	–	inconclusive: 0.0794 µM [activator, partial curve]
Cc1nnc2sc(SCC(=O)Nc3cccc(Cl)c3)nn2c1=O	–	inconclusive: 5.62 µM [activator, single point]
COc1cccc(C2C3=C(CC(C)(C)CC3=O)Nc3n[nH]c(C)c32)c1 (stereo unspecified)	–	inconclusive: 15.8 µM [activator, single point]
CCC(C)(C)C1CCC(=NNS(=O)(=O)c2ccc(C)c([N+](=O)[O-])c2)CC1 (stereo unspecified)	inactive: -1.38% [at 10 µM]	–
CCOC(=O)Cn1nc(C)c(NC(=O)COc2ccc([N+](=O)[O-])c(C)c2)c1C	–	inconclusive: 0.0891 µM [activator, full curve, poor fit]
CCOc1cc(/C=C2/SC(=S)N(CC3CCCO3)C2=O)ccc1O (stereo unspecified)	inactive: 7.14% [at 10 µM]	–
Cc1cc2c3c(c1)C1(SCC(=O)N1c1ccc(F)cc1)C(=O)N3C(C)(C)CC2C (stereo unspecified)	–	inconclusive: 3.98 µM [activator, partial curve]
Cc1ccccc1CS(=O)(=O)c1cnc2ccccc2n1	–	inconclusive: 35.5 µM [activator, single point]
COC(=O)c1ccc(NC(=O)COC(=O)c2nc3nccc(C)n3n2)cc1	–	inconclusive: 10 µM [activator, partial curve]
Nc1ccc(C(=O)Nc2ccccc2N)cc1	–	inconclusive: 22.4 µM [activator, partial curve, poor fit]
CCCC(C)C(=O)Nc1ccc(Cl)cc1Cl (stereo unspecified)	–	inconclusive: 1.26 µM [activator, single point]
Cc1nc2nc(C)c(CCC(=O)N3CCc4ccccc43)c(C)n2n1	–	inconclusive: 0.891 µM [activator, single point]
O=C(CNC(=O)c1ccco1)OCc1c(F)cccc1Cl	inactive: 4.5% [at 10 µM]	–
CSC(=S)N(C)C1CCS(=O)(=O)C1 (stereo unspecified)	–	inconclusive: 3.55 µM [activator, single point]
CC(=O)Nc1ccc(/C(C)=N/Nc2nc(Nc3ccccc3)nc(N3CCOCC3)n2)cc1	–	inconclusive: 5.01 µM [activator, single point]
COC(=O)c1ccccc1NC(=S)NC(=O)c1ccc2ccccc2c1	inactive: 18.6% [at 10 µM]	–
COCCn1c(SCC(=O)Nc2ccc(Cl)cn2)nnc1-c1ccncc1	–	inconclusive: 12.6 µM [activator, partial curve]
O=C(/C=C/c1ccccc1[N+](=O)[O-])NCc1ccccc1Cl	–	inconclusive: 1.26 µM [activator, single point]
CC(CCc1ccccc1)NC(=O)COC(=O)c1ccc(S(C)(=O)=O)c([N+](=O)[O-])c1 (stereo unspecified)	–	inconclusive: 6.31 µM [activator, single point]
O=C1OCCC1Sc1nc2cc(Cl)ccc2n1Cc1ccccc1 (stereo unspecified)	inactive: -9.76%	–
O=C(CN1CCCCCC1)Nc1cccc(Br)c1	inactive: -17.8%	–

Record cards, as listed above. Order of values: cytoprotection (ATP increase) | Potency
CN=C(N)NCCC[C@H](N)C(=O)O is listed as – | inconclusive: 0.891 µM [activator, partial curve]
O=C(C[n+]1ccccc1)c1ccc(-c2ccccc2)cc1 is listed as – | inconclusive: 1 µM [activator, single point]

Continuation.

SMILES	cytoprotection (ATP increase)	Potency
O=C1CC(c2c(F)cccc2Cl)C(n2cncn2)C(O)=C1C1NCCc2ccccc21 (stereo unspecified)	–	inconclusive: 3.55 µM [activator, single point]
O=C(NCc1ccc[n+](CCCCS(=O)(=O)[O-])c1)c1ccc(OC(F)F)cc1	–	inconclusive: 0.562 µM [activator, single point]
COC(=O)[C@@]1(Cc2ccc(OC)cc2)[C@H]2c3cc(C(=O)N(C)C)n(Cc4ccccc4)c3C[C@H]2CN1C(=O)c1ccccc1	–	inconclusive: 12.6 µM [activator, single point]
C=C(C[C@]1(C(=O)OC)CC2(CC=C(C)C)C(=O)C(C(=O)CC(C)C)=C(O)C(CC=C(C)C)(C1)C2=O)C(=O)OC (stereo partly specified)	–	inconclusive: 10 µM [activator, partial curve, poor fit]
CCOC(=O)N1CCN(CCC(=O)Nc2ccc(Br)cc2)CC1	–	inconclusive: 5.62 µM [activator, single point]
CC(=O)Nc1ccc(C2=NNC(=Nc3cccc(S(=O)(=O)N(C)C)c3)SC2)cc1	–	inconclusive: 15.8 µM [activator, single point]
COc1ccc(CCNC(=O)c2cc(-c3cccs3)on2)cc1OC	–	active: 3.55 µM
COC(=O)C1SCC2C(=O)N(Cc3ccc(Cl)cc3)CC(=O)N21 (stereo unspecified)	–	inconclusive: 6.31 µM [activator, single point]
Cn1cc([N+](=O)[O-])c(C(=O)Nc2cc(Oc3ccccc3)cc([N+](=O)[O-])c2)n1	–	inconclusive: 0.891 µM [activator, single point]
Cc1ccc(NC(=O)Nc2ccnc(-c3cccnc3)n2)cc1	–	active: 3.55 µM
COC(=O)NC(c1cccc(F)c1)[C@@]1(C(=O)OC)CCCC1=O (stereo partly specified)	–	inconclusive: 1.26 µM [activator, full curve, poor fit]
O=[N+]([O-])c1ccc2nc(-c3ccccc3)oc2c1	inactive: -57.9%	–
COc1ccccc1CNC(=S)NCCc1ccccc1	–	active: 3.16 µM
NC(=O)c1sc2nc3c(c(-c4ccc(Cl)cc4)c2c1N)CCCC3	–	inconclusive: 3.16 µM [activator, partial curve]
CC(=O)C1=C(O)C(=O)N(c2ccc(S(=O)(=O)Nc3nccs3)cc2)C1c1ccc([N+](=O)[O-])cc1 (stereo unspecified)	–	inconclusive: 1.58 µM [activator, partial curve]
O=C(CCSCc1ccccc1Cl)NC1CCCC1	inactive: 0.776% [at 10 µM]	–
CC(C)CO/N=C1/[C@H]2O[C@@H]2[C@@H](O)[C@H]2[C@H]1CCn1c(=O)n(Cc3cc4c(cc3Cl)OCO4)c(=O)n12	–	inconclusive: 6.31 µM [activator, partial curve, poor fit]
Cn1cc(C2=C(c3ccc(Cl)cc3Cl)C(=O)NC2=O)c2ccccc21	–	inconclusive: 0.631 µM [activator, full curve]
Cc1nc(CS(=O)c2ccccc2)cc(N2CCOCC2)n1 (stereo unspecified)	–	inconclusive: 0.794 µM [activator, single point]
Fc1cccc(Nc2nc(-c3ccncc3)nc3ccccc23)c1	–	inconclusive: 0.112 µM [activator, partial curve, poor fit]
NC(=O)c1c(NC(=O)c2ccco2)sc2c1CCC2	inactive: -8.86% [at 10 µM]	–
COc1cc(/C=C/C2=CC(C)(C)NC(=S)N2)cc(OC)c1OC	–	inconclusive: 2.51 µM [activator, full curve, poor fit]
